Reference: PubChem BioAssay AID504467 (National Center for Advancing Translational Sciences (NCATS), 2011)
Out of some 330,000 compounds screened, about 7,700 (2.3%) were called active. Inconclusive means that the source gave no clear call. Such entries were picked first, then a sample of the others. The call rests on the fitted dose curve; in most records, active means well fitted inhibition curve with a large enough effect; inconclusive means small, poorly fitted or top-dose-only effect, or effect the other way; inactive means flat fitted curve, though single readings scatter. Where the call is inconclusive, the potency comes from a doubtful curve fit.

assay: qHTS screen for small molecules that inhibit ELG1-dependent DNA repair in human embryonic kidney (HEK293T) cells expressing luciferase-tagged ELG1; settings: HEK293T ELG1-luciferase reporter, luminescence, 16 h, DNA damage induced by 5-fluorouridine; series mostly up to 46.1 µM; further: nearly all actives have a fitted effect of over 55% in size
Method in brief: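 Luminescence from the luciferase reporter, measured 30 min after ONE-Glo reagent at room temperature, was the read-out. Beforehand, 2,000 cells per well were exposed for 16 hr at 37 °C to 5-fluorouridine together with compound or vehicle.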
Potency means the concentration at half of the fitted maximal effect.

SMILES | Potency
COc1cccc(-c2nc(NCc3cccnc3)c3ccccc3n2)c1O | inconclusive: 0.164 µM [inhibitor, partial curve, poor fit]
COc1ccc(-c2nc(Cn3c(SCc4cccc(F)c4)nc4ccncc43)c(C)o2)cc1OC | inconclusive: 5.8 µM [inhibitor, partial curve]
COC(=O)c1sccc1-c1ccc(C(=O)Nc2cccc(Cl)c2)o1 | inconclusive: 5.62 µM [activator, single point]
CC(C)(C)C(=O)Nc1c2c(nn1-c1ccccc1)CSC2 | inconclusive: 16.4 µM [activator, partial curve, poor fit]
O=C(Nc1ccc(N2CCOCC2)cc1)c1ccc(COc2ccccc2)cc1 | inconclusive: 3.26 µM [inhibitor, full curve]
CC(=O)c1c(C)[nH]c(C(=O)OCC(=O)NCCCc2ccccc2)c1C | inconclusive: 23.1 µM [inhibitor, single point]
Cc1cccn2c(=O)c3cc(C(=O)NCc4cccnc4)c(=N)n(C(C)C)c3nc12 | inactive
CC(C)Oc1ccc(CNC(=O)CCC(=O)N2CC(C)Sc3ccccc32)cc1 (stereo not drawn) | inactive
Nc1ccccc1C(=O)N1O[C@@H]2C=C[C@H]1CC2 | inconclusive: 29.1 µM [activator, partial curve, poor fit]
O=C(CC1CC2CCC1C2)OCC(=O)c1c[nH]c2ccccc12 (stereo not drawn) | inconclusive: 25.9 µM [activator, single point]
CCN(c1cccc(C(F)(F)F)c1)S(=O)(=O)c1ccc2c(c1)CCN2C(=O)C1CC1 | inconclusive: 29.1 µM [inhibitor, single point]
O=C1OC(CC(=O)N(Cc2nnc(-c3ccc(Cl)cc3)o2)C2CC2)c2ccccc21 (stereo not drawn) | inactive
COc1ccc(N2CCN(C(=O)C3COc4ccccc4O3)CC2)cc1 (stereo not drawn) | inactive
COc1ccc(C(=O)NC2CCCN(Cc3ccccc3F)C2)c(OC)c1OC (stereo not drawn) | inconclusive: 32.6 µM [inhibitor, partial curve, poor fit]
O=C(Nc1ccccc1)Oc1ccc[nH]c1=O | inconclusive: 32.6 µM [inhibitor, single point]
COC(=O)c1c(NC(=O)c2ccco2)sc2c1CC(C)(C)NC2(C)C | active: 9.2 µM
CCOc1ccccc1-c1nc(-c2cccc(Br)c2)no1 | inconclusive: 20.6 µM [activator, single point]
O=C(CN1C(=O)c2ccccc2C1=O)Nc1cccnc1 | inconclusive: 20.6 µM [inhibitor, partial curve]
COc1ccc(C(CCN(Cc2ccc(OC)c(OC)c2)C(=O)CCl)c2ccccc2)cc1 (stereo not drawn) | active: 20.6 µM
CN=C1S/C(=C\c2ccc(SC)cc2)C(=O)N1C | inconclusive: 18.3 µM [activator, partial curve]
CCOc1ccccc1N1CCN(C(=O)c2ccc3nc(N)sc3c2)CC1 | inactive
Cc1cccc(OCC(=O)Nc2cc(NC(=O)COc3cccc(C)c3C)cc(C(=O)O)c2)c1C | inconclusive: 20.6 µM [activator, single point]
CCCCNC(=O)c1cn(-c2ccc(OCC)cc2)c(=O)c2cc(OC)c(OC)cc12 | active: 23.1 µM

SMILES | Potency
O=C(O)c1ccccc1C(=O)c1ccc2c(c1)N(Cc1ccc(Cl)c(Cl)c1)C(=O)CO2 | inconclusive: 20.6 µM [inhibitor, single point]
COCCCNC(=O)C[C@H]1C[C@H](C(=O)N(C(C)C)C(C)C)[C@@]2(C)c3[nH]c4ccc(Cl)cc4c3CCN2C1=O | inactive
O=C(Nc1cccc(NC(=O)c2ccc([N+](=O)[O-])o2)c1)c1ccco1 | active: 11.6 µM
Cc1ccc2nc(NC(=O)C3CCN(S(=O)(=O)c4cccc5nsnc45)CC3)sc2c1 | active: 16.4 µM
NC(=S)N/N=C/c1cc([N+](=O)[O-])ccc1Cl | inactive
Cc1c(C(=O)NCCN2C(=O)S/C(=C\c3cccnc3)C2=O)cccc1[N+](=O)[O-] | inactive
Cc1ccc(NC(=O)CSCC(=O)O)cc1 | inconclusive: 20.6 µM [activator, partial curve, poor fit]
COc1ccc(NC(=O)Nc2ccc(Br)c(C)c2)cc1 | inconclusive: 23.1 µM [activator, partial curve]
COc1ccc(NC(=O)Nc2ccc3nonc3c2)cc1 | inconclusive: 3.66 µM [activator, full curve]
CC/C(=N\Nc1ccc([N+](=O)[O-])cc1)c1ccccc1 | inconclusive: 29.1 µM [inhibitor, single point]
O=C(CC1C(=O)NCCN1C/C=C/c1ccccc1)NCCc1ccncc1 (stereo not drawn) | inactive
Cc1ccc(N/C(=N/S(=O)(=O)c2cccs2)c2ccccc2)c(C)c1 | inactive
CN(C)/C=N/c1ncnc2c1cnn2-c1ccc(C(F)(F)F)cn1 | inconclusive: 9.2 µM [activator, partial curve]
Cc1cc([N+](=O)[O-])ccc1NC(=O)CSc1nncn1-c1ccccn1 | inconclusive: 29.1 µM [inhibitor, single point]
O=C(CSc1nc(-c2ccccc2)c(-c2ccccc2)[nH]1)N1CCN(S(=O)(=O)c2ccccc2)CC1 | active: 16.4 µM
CCCCOc1ccc(C(=O)NC)cc1 | inconclusive: 32.6 µM [activator, single point]
CCOC(=O)C1=C(C)NC(SCC(=O)Nc2cc(C)on2)=C(C#N)C1c1cccs1 (stereo not drawn) | inconclusive: 10.3 µM [inhibitor, single point]
C/C(N)=C(/C#N)C(=O)COC(=O)c1cc2c(s1)CCC(C)C2 (stereo not drawn) | inconclusive: 20.6 µM [activator, single point]
CCCCCCSc1nnc(-c2cnn(-c3ccccc3)c2-n2cccc2)n1C | inactive
CC1CCc2sc(NC(=S)NC(=O)c3ccccc3)c(C#N)c2C1 (stereo not drawn) | inconclusive: 13 µM [activator, partial curve]
COC(=O)[C@@H]1C[C@@]2(O)[C@H](O)[C@H](O)[C@H](O)C[C@H]2N1Cc1ccccc1OS(=O)(=O)c1ccc(C)cc1 | inconclusive: 18.3 µM [activator, partial curve, poor fit]
CS(=O)(=O)Nc1ccc(C(=O)N2CC(=O)Nc3ccccc32)cc1 | inactive
Nc1ncnc2c1ncn2[C@@H]1O[C@H](CNCc2ccc(OCC(=O)Nc3nccs3)cc2)[C@@H](O)[C@H]1O | inconclusive: 14.6 µM [activator, partial curve]

SMILES | Potency
O=C(c1cnn2c1NC(c1ccc(Br)cc1)CC2C(F)(F)F)N1CCN(C23CC4CC(CC(C4)C2)C3)CC1 (stereo not drawn) | inconclusive: 20.6 µM [inhibitor, partial curve, poor fit]
CC(c1ccccc1)n1c(S(=O)(=O)O)nc2ccccc21 (stereo not drawn) | inconclusive: 32.6 µM [activator, partial curve, poor fit]
Cc1cccc(S(=O)(=O)Nc2ccc(-c3cn4ccccc4n3)cc2)c1 | inactive
Cc1cccc(NC2=Nc3ccccc3N3C2=Nc2c(c(C)nn2-c2ccccc2)C3c2ccc(O)c(O)c2)c1 (stereo not drawn) | inactive
COC(=O)c1ccccc1NC(=O)NCc1c(C)nn(C)c1C | inconclusive: 29.1 µM [inhibitor, single point]
COc1cc(/C=C2\OC(=O)c3c(OC)cccc32)ccc1O | inconclusive: 4.11 µM [activator, partial curve]
O=C(NNCc1ccc(O)cc1)c1ccccc1Cl | inconclusive: 20.6 µM [activator, partial curve]
Clc1ncn(CCOc2ccccc2)c1Cl | inconclusive: 29.1 µM [activator, partial curve, poor fit]
CCOC(=O)C1(Cc2cccc(OC)c2)CCN(Cc2ccc(C)s2)CC1 | inconclusive: 29.1 µM [inhibitor, single point]
Cc1occc1C(=O)Nc1ccc2c(c1)OCO2 | inconclusive: 8.2 µM [activator, partial curve]
COc1ccc(C(CNC(=O)c2c(C)nn(Cc3ccc(C)cc3)c2Cl)N2CCOCC2)cc1 (stereo not drawn) | active: 20.6 µM
Cc1nc(Nc2ccncc2)c2oc3ccccc3c2n1 | active: 16.4 µM
O=C(/C=C/c1cccc(Br)c1)N1CCN(c2ccccn2)CC1 | inactive
c1ccc(Cn2nnc3c(N4CCC5(CC4)OCCO5)ncnc32)cc1 | inactive
Cc1ccc(Cc2nc(-c3ccccn3)no2)cc1 | inconclusive: 18.4 µM [activator, partial curve]
C#CCOCCOCCOCCNc1nc(N2CCN(C(=O)[C@H]([C@@H](C)CC)n3cc([C@@H](N)CO)nn3)CC2)nc(N2CCN(C(=O)[C@H]([C@@H](C)CC)n3cc([C@@H](N)CO)nn3)CC2)n1 | inactive
COc1cc(C2CC(=O)Oc3cc4c(cc32)OCO4)cc(OC)c1OC (stereo not drawn) | inconclusive: 23.1 µM [activator, partial curve, poor fit]
Cc1ccc(S(=O)(=O)n2cccc2CO)cc1 | inconclusive: 35.5 µM [activator, single point]
CN(CC(=O)NCc1ccccc1)S(=O)(=O)c1ccc2c(c1)CCC(=O)N2 | inconclusive: 23.1 µM [activator, partial curve, poor fit]
CCOC(=O)CSc1nc2ccsc2c(=O)n1C1CCN(C(=O)OCC)CC1 | inconclusive: 23.1 µM [inhibitor, partial curve, poor fit]
Cc1ccc(N2C(=O)c3n[nH]c(C)c3C2c2cccnc2)cc1 (stereo not drawn) | inactive
CCOC(=O)N1CCN(C(=O)c2ccccc2CCc2ccccc2)CC1 | inactive

Quoted from the entries so far, 13 compounds:
SMILES | Potency
Cc1cccc(NC2=Nc3ccccc3N3C2=Nc2c(c(C)nn2-c2ccccc2)C3c2ccc(O)c(O)c2)c1 (stereo not drawn) | inactive
COC(=O)c1ccccc1NC(=O)NCc1c(C)nn(C)c1C | inconclusive: 29.1 µM [inhibitor, single point]
COc1cc(/C=C2\OC(=O)c3c(OC)cccc32)ccc1O | inconclusive: 4.11 µM [activator, partial curve]
O=C(NNCc1ccc(O)cc1)c1ccccc1Cl | inconclusive: 20.6 µM [activator, partial curve]
Clc1ncn(CCOc2ccccc2)c1Cl | inconclusive: 29.1 µM [activator, partial curve, poor fit]
CCOC(=O)C1(Cc2cccc(OC)c2)CCN(Cc2ccc(C)s2)CC1 | inconclusive: 29.1 µM [inhibitor, single point]
Cc1occc1C(=O)Nc1ccc2c(c1)OCO2 | inconclusive: 8.2 µM [activator, partial curve]
COc1ccc(C(CNC(=O)c2c(C)nn(Cc3ccc(C)cc3)c2Cl)N2CCOCC2)cc1 (stereo not drawn) | active: 20.6 µM
Cc1nc(Nc2ccncc2)c2oc3ccccc3c2n1 | active: 16.4 µM
O=C(/C=C/c1cccc(Br)c1)N1CCN(c2ccccn2)CC1 | inactive
c1ccc(Cn2nnc3c(N4CCC5(CC4)OCCO5)ncnc32)cc1 | inactive
Cc1ccc(Cc2nc(-c3ccccn3)no2)cc1 | inconclusive: 18.4 µM [activator, partial curve]
C#CCOCCOCCOCCNc1nc(N2CCN(C(=O)[C@H]([C@@H](C)CC)n3cc([C@@H](N)CO)nn3)CC2)nc(N2CCN(C(=O)[C@H]([C@@H](C)CC)n3cc([C@@H](N)CO)nn3)CC2)n1 | inactive
